PubChem BioAssay AID1159584, Peter MacCallum Cancer Centre | 2016

- Screen: 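Genes whose loss is lethal only together with E-cadherin loss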 (primary screen)
- System: human MCF10A breast epithelial cells, parental and CDH1-null
- Reagent: siRNA against human genes
- Read-out: 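ATP luminescence (CellTiter-Glo) viability per line relative to mean mock wells over all plates, and the ratio of CDH1-null to parental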
- Reading the numbers: CDH1-null / parental viability ratio: higher = CDH1-null cells survive relatively better than parental; CDH1-null viability vs mock: higher = more viable CDH1-null cells; parental viability vs mock: higher = more viable parental cells
Here is a random part of about 18,000 reagents. Not given: the amount of reagent, the time to read-out.

Target gene | CDH1-null / parental viability ratio | CDH1-null viability vs mock (fraction of mock) | parental viability vs mock (fraction of mock)
SLC9A5 | 1.06 | 0.86 | 0.81
TRIM31 (tripartite motif containing 31) | 0.91 | 0.62 | 0.68
B4GALNT3 (beta-1,4-N-acetyl-galactosaminyltransferase 3) | 0.9 | 0.77 | 0.86
ZNF12 (zinc finger protein 12) | 1.03 | 0.76 | 0.74
SPRED1 (sprouty related EVH1 domain containing 1) | 1.3 | 1.04 | 0.8
FAM174C (family with sequence similarity 174 member C) | 1.07 | 0.86 | 0.8
KIAA0825 | 0.97 | 0.99 | 1.02
SLC37A4 | 1 | 0.86 | 0.86
RELT (RELT TNF receptor) | 1.13 | 0.86 | 0.76
COMMD1 (copper metabolism domain containing 1) | 1.41 | 0.86 | 0.61
SIGLECL1 (SIGLEC family like 1) | 0.85 | 0.58 | 0.68
PODXL2 (podocalyxin like 2) | 0.89 | 0.64 | 0.72
ADAM20 (ADAM metallopeptidase domain 20) | 1.11 | 0.98 | 0.88
SCGB3A2 (secretoglobin family 3A member 2) | 0.85 | 0.72 | 0.85
RABL2A (RAB, member of RAS oncogene family like 2A) | 0.48 | 0.29 | 0.6
POU2F1 (POU class 2 homeobox 1) | 0.88 | 0.79 | 0.9
TEDC2 (tubulin epsilon and delta complex 2) | 0.93 | 0.77 | 0.83
CPEB2 (cytoplasmic polyadenylation element binding protein 2) | 0.97 | 0.64 | 0.66
GCOM1 (GCOM1, MYZAP-POLR2M combined locus) | 0.96 | 0.8 | 0.83
ZBTB3 (zinc finger and BTB domain containing 3) | 1.13 | 0.94 | 0.83
CALCRL (calcitonin receptor like receptor) | 0.86 | 0.96 | 1.12
MKRN2 (makorin ring finger protein 2) | 0.95 | 0.8 | 0.84
ZNF302 (zinc finger protein 302) | 1.33 | 0.69 | 0.52
C16orf78 (chromosome 16 open reading frame 78) | 0.91 | 0.78 | 0.86
FGFBP3 (fibroblast growth factor binding protein 3) | 0.88 | 0.53 | 0.6
THOP1 (thimet oligopeptidase 1) | 0.93 | 0.54 | 0.58
CYP2E1 (cytochrome P450 family 2 subfamily E member 1) | 1.05 | 1.05 | 1
NUDT3 (nudix hydrolase 3) | 1.36 | 0.95 | 0.7
TMPRSS11B (transmembrane serine protease 11B) | 1.04 | 1.08 | 1.04
GABRD (gamma-aminobutyric acid type A receptor subunit delta) | 1.19 | 0.76 | 0.64
TSPAN13 (tetraspanin 13) | 1.14 | 0.97 | 0.85
PPA1 (inorganic pyrophosphatase 1) | 0.93 | 0.53 | 0.57
ATRN (attractin) | 1.09 | 0.83 | 0.76
ARHGAP11A (Rho GTPase activating protein 11A) | 0.88 | 0.69 | 0.78
ZNF213 (zinc finger protein 213) | 1 | 0.84 | 0.84
MCMDC2 (minichromosome maintenance domain containing 2) | 0.97 | 0.87 | 0.9
LIPI (lipase I) | 1.05 | 1.04 | 0.99
HS6ST3 (heparan sulfate 6-O-sulfotransferase 3) | 0.93 | 1.01 | 1.09
DHX8 (DEAH-box helicase 8) | 0.66 | 0.54 | 0.82
DGKB (diacylglycerol kinase beta) | 1.25 | 1 | 0.8
PHF19 (PHD finger protein 19) | 0.9 | 0.92 | 1.02
TAF6L (TATA-box binding protein associated factor 6 like) | 0.99 | 0.87 | 0.88
PRSS12 (serine protease 12) | 1.28 | 0.64 | 0.5
ZNHIT3 (zinc finger HIT-type containing 3) | 0.73 | 0.38 | 0.52
NECAP1 (NECAP endocytosis associated 1) | 1.12 | 0.99 | 0.88
RPUSD2 (RNA pseudouridine synthase domain containing 2) | 0.69 | 0.59 | 0.85
TMEM244 (transmembrane protein 244) | 0.87 | 0.78 | 0.9
SLC30A3 | 0.96 | 1.01 | 1.05
USPL1 (ubiquitin specific peptidase like 1) | 0.65 | 0.52 | 0.8
RPL30 (ribosomal protein L30) | 1.5 | 0.3 | 0.2
QPCT (glutaminyl-peptide cyclotransferase) | 0.87 | 0.6 | 0.69
AMTN (amelotin) | 0.85 | 0.39 | 0.46
EED (embryonic ectoderm development) | 0.88 | 0.72 | 0.82
TUBB2B (tubulin beta 2B class IIb) | 1.05 | 0.8 | 0.76
KCNK16 (potassium two pore domain channel subfamily K member 16) | 1.16 | 0.89 | 0.77
DHFR2 (dihydrofolate reductase 2) | 1.02 | 1.04 | 1.02
GRIA1 (glutamate ionotropic receptor AMPA type subunit 1) | 1.37 | 1.19 | 0.87
FGF10 (fibroblast growth factor 10) | 1.1 | 0.9 | 0.82
NHERF2 (NHERF family PDZ scaffold protein 2) | 0.98 | 1.01 | 1.03
OR10P1 (olfactory receptor family 10 subfamily P member 1) | 1.47 | 0.84 | 0.57
DNAJC22 (DnaJ heat shock protein family (Hsp40) member C22) | 0.86 | 0.76 | 0.88
NSMCE4A (NSE4A component of SMC5/6 complex) | 0.81 | 0.57 | 0.7
APLN (apelin) | 0.99 | 0.7 | 0.71
LCN8 (lipocalin 8) | 0.89 | 0.64 | 0.72
MRPL19 (mitochondrial ribosomal protein L19) | 1.24 | 1.15 | 0.93
SLC35H1 | 0.77 | 0.62 | 0.8
FBLIM1 (filamin binding LIM protein 1) | 1.17 | 0.84 | 0.72
FANK1 (fibronectin type III and ankyrin repeat domains 1) | 1.07 | 0.32 | 0.3
